From publication PMC5303829, “A CAF40-binding motif facilitates recruitment of the CCR4-NOT complex to mRNAs targeted by Drosophila Roquin” (Nature Communications, 2017)

The chains behind the UniProt entries cited, without tags or fusion partners. Where a name states a change or a piece, a line headed by the entry shows the natural chain unless it says otherwise.
UniProt Q7JVP2: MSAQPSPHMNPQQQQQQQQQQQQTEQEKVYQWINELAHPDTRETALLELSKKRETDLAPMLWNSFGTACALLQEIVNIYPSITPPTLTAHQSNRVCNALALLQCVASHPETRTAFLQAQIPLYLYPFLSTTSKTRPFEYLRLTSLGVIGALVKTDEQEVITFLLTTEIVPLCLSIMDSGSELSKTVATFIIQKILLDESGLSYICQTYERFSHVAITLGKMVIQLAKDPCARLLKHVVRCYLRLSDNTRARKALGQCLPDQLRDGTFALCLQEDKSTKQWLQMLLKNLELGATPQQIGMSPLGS

Assays:
[1] = molecular target: T1, GFP-tagged Dm Roquin (full-length, wild-type) (Drosophila melanogaster) (UniProt Q9VV48); assay: co-IP; GFP-tagged Dm Roquin and HA-tagged deadenylase or decapping factors co-expressed in Dm S2 cells; lysates treated with RNase A; anti-GFP and anti-HA blots
T1 sequence: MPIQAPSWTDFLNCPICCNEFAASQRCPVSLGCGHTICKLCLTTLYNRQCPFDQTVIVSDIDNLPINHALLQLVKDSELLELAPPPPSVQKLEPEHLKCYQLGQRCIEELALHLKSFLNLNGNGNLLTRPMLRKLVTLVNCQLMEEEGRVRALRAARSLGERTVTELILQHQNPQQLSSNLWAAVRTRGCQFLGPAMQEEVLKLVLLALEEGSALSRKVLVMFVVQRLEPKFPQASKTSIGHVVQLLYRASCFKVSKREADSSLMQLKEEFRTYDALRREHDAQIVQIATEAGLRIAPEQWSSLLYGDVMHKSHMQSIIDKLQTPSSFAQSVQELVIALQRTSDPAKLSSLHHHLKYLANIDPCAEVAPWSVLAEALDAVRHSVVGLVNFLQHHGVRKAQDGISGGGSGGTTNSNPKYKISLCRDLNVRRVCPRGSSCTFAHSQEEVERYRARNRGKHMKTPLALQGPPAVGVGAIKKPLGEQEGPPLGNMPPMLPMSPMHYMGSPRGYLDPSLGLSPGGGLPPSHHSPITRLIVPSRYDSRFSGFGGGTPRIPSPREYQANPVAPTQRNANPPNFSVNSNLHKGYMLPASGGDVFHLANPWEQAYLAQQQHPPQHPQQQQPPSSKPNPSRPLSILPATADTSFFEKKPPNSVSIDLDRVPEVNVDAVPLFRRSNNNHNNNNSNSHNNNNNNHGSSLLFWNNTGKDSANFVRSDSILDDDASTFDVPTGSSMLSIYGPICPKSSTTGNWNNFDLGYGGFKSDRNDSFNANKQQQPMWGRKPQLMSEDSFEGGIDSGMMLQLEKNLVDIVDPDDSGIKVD

[2] = molecular target: T1, GFP-tagged Dm Roquin (full-length, wild-type) (Drosophila melanogaster); assay: co-IP; GFP-tagged Dm Roquin and HA-tagged CAF40 co-expressed in Dm S2 cells in the presence of HA-tagged CN9BD; lysates treated with RNase A (Fig. 5)
[3] = molecular target: T2, GFP-tagged Dm Roquin ΔCBM (Drosophila melanogaster) (UniProt Q9VV48); assay: co-IP; GFP-tagged Dm Roquin and HA-tagged deadenylase or decapping factors co-expressed in Dm S2 cells; lysates treated with RNase A; anti-GFP and anti-HA blots
T2 sequence: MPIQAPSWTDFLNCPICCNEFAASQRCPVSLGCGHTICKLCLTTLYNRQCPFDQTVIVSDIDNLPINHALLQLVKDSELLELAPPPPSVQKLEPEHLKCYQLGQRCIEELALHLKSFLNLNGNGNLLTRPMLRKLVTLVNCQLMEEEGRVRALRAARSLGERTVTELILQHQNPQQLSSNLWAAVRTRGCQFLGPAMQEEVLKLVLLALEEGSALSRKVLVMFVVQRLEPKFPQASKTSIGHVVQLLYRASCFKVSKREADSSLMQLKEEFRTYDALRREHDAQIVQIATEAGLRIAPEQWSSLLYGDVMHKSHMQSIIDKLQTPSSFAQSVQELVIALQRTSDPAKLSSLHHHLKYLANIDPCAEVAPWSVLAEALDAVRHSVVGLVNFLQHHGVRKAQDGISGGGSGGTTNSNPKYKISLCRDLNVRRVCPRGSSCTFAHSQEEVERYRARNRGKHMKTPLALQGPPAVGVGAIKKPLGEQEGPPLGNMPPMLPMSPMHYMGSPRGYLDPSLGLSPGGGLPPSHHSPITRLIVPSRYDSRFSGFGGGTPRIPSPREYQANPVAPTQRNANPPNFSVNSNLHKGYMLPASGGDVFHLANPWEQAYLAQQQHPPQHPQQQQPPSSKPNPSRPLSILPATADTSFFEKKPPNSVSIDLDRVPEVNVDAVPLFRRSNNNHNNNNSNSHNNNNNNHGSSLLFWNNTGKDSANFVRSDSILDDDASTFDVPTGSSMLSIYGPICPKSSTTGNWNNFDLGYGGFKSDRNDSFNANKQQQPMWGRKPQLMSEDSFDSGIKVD

[4] = molecular target: T3, GFP-tagged Dm Roquin ΔNBM (Drosophila melanogaster) (UniProt Q9VV48); assay: as above
T3 sequence: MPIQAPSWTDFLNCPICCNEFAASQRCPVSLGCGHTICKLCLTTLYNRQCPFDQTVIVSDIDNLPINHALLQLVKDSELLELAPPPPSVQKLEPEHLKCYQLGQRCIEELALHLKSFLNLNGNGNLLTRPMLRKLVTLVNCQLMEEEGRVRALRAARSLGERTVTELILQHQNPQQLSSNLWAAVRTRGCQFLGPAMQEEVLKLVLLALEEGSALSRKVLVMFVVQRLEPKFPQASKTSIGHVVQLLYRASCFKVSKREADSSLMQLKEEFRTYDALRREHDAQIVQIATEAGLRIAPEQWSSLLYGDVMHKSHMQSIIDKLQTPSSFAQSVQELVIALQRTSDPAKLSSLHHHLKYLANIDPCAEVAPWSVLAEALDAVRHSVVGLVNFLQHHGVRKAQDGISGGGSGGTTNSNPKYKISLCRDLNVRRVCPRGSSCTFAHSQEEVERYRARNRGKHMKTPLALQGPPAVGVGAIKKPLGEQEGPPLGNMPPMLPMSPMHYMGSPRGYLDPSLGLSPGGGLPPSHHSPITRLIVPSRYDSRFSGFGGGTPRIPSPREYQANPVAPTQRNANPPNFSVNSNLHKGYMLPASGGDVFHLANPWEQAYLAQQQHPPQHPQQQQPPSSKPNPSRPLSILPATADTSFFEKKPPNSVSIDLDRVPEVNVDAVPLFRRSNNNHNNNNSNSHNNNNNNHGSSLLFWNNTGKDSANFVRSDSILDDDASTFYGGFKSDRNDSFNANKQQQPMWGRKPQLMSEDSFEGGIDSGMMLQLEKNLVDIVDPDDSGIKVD

Row | Substance | binding [1] | binding [2] | further results
1 | HA-tagged CAF1 (S2 cells) | binds | – | –
2 | HA-tagged Dm CAF40 mutant corresponding to Hs CAF40 V181E (from UniProt Q7JVP2) | – | no binding | –
3 | HA-tagged HPat (S2 cells) | binds | – | –
4 | HA-tagged NOT10 (S2 cells) | binds | – | –

Continued, in another order:

Row | binding [1] | binding [2] | Substance | further results
5 | – | no binding | HA-tagged Dm CAF40 mutant corresponding to Hs CAF40 Y134D, G141W (from UniProt Q7JVP2) | –
6 | binds | – | HA-tagged NOT3 (S2 cells) | binding [3]: binds; binding [4]: binds

Results are given in words; binding and its absence hold for the method and conditions named. In cells and extracts the contact can be indirect. For some assays here: Binding can be weak; no strength is given. Tags and fused reporters may be left off the sequences shown.
